The list shows a part of the results.
Key:
Assay in all cases: glycan array binding signal (z-score within array); higher = stronger binding
Settings in all cases: glycan notation: IUPAC condensed, linker removed
Neu5Ac(a2-8)Neu5Ac = target: Neu5Ac(a2-8)Neu5Ac
How it was run: (§1)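 The binding signal is a Z-score computed within each array and averaged over linkers. Arrays of the same protein sequence at different concentrations or buffers were also averaged together. Data originate from 3228 arrays in the Consortium for Functional Glycomics database, kept only where the protein sequence was available.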

[1] = target: Neu5Ac(a2-8)Neu5Ac(a2-3)Gal(b1-3)GalNAc(b1-4)[Neu5Ac(a2-3)]Gal(b1-4)Glc
How it was run: as §1

[2] = target: Neu5Ac(a2-8)Neu5Ac(a2-3)Gal(b1-3)GalNAc(b1-4)[Neu5Ac(a2-8)Neu5Ac(a2-3)]Gal(b1-4)Glc
How it was run: as §1

[3] = target: Neu5Ac(a2-8)Neu5Ac(a2-3)Gal(b1-4)Glc
How it was run: as §1

[4] = target: Neu5Ac(a2-8)Neu5Ac(a2-3)Gal(b1-4)GlcNAc
How it was run: as §1

[5] = target: Neu5Ac(a2-8)Neu5Ac(a2-3)[Gal(b1-3)GalNAc(b1-4)]Gal(b1-4)Glc
How it was run: as §1

[6] = target: Neu5Ac(a2-8)Neu5Ac(a2-3)[GalNAc(b1-4)]Gal(b1-4)Glc
How it was run: as §1

[7] = target: Neu5Ac(a2-8)Neu5Ac(a2-8)Neu5Ac
How it was run: as §1

[8] = target: Neu5Ac(a2-8)Neu5Ac(a2-8)Neu5Ac(a2-3)Gal(b1-4)Glc
How it was run: as §1

[9] = target: Neu5Ac(a2-8)Neu5Ac(a2-8)Neu5Ac(a2-3)[Gal(b1-3)GalNAc(b1-4)]Gal(b1-4)Glc
How it was run: as §1

[10] = target: Neu5Ac(a2-8)Neu5Ac(a2-8)Neu5Ac(a2-3)[GalNAc(b1-4)]Gal(b1-4)Glc
How it was run: as §1

[11] = target: Neu5Ac(a2-8)Neu5Ac(a2-8)Neu5Ac(a2-8)Neu5Ac(a2-3)[GalNAc(b1-4)]Gal(b1-4)Glc
How it was run: as §1

[12] = target: Neu5Ac(a2-8)Neu5Gc(a2-3)Gal(b1-4)GlcNAc
How it was run: as §1

[13] = target: Neu5Ac(b2-6)Gal(b1-4)GlcNAc
How it was run: as §1

Neu5Ac(b2-6)GalNAc = target: Neu5Ac(b2-6)GalNAc
How it was run: as §1

[14] = target: Neu5Ac9Ac(a2-3)Gal(b1-3)GlcNAc
How it was run: as §1

[15] = target: Neu5Ac9Ac(a2-3)Gal(b1-4)GlcNAc
How it was run: as §1

[16] = target: Neu5Ac9Ac(a2-6)Gal(b1-4)GlcNAc
How it was run: as §1

[17] = target: Neu5Gc(a2-3)Gal(b1-3)GlcNAc
How it was run: as §1

[18] = target: Neu5Gc(a2-3)Gal(b1-3)[Fuc(a1-4)]GlcNAc
How it was run: as §1

Neu5Gc(a2-3)Gal(b1-4)Glc = target: Neu5Gc(a2-3)Gal(b1-4)Glc
How it was run: as §1

[19] = target: Neu5Gc(a2-3)Gal(b1-4)GlcNAc
How it was run: as §1

[20] = target: Neu5Gc(a2-3)Gal(b1-4)GlcNAc(b1-3)Gal(b1-4)GlcNAc(b1-2)Man(a1-3)[Neu5Gc(a2-3)Gal(b1-4)GlcNAc(b1-3)Gal(b1-4)GlcNAc(b1-2)Man(a1-6)]Man(b1-4)GlcNAc(b1-4)GlcNAc
How it was run: as §1

[21] = target: Neu5Gc(a2-3)Gal(b1-4)[Fuc(a1-3)]GlcNAc
How it was run: as §1

[22] = target: Neu5Gc(a2-6)Gal(b1-4)GlcNAc
How it was run: as §1

Neu5Gc(a2-6)GalNAc = target: Neu5Gc(a2-6)GalNAc
How it was run: as §1

[23] = target: Neu5Gc(a2-8)Neu5Ac(a2-3)Gal(b1-4)GlcNAc
How it was run: as §1

[24] = target: Neu5Gc(a2-8)Neu5Gc(a2-3)Gal(b1-4)GlcNAc
How it was run: as §1

[25] = target: Neu5Gc(a2-8)Neu5Gc(a2-3)Gal(b1-4)GlcNAc(b1-3)Gal(b1-4)GlcNAc
How it was run: as §1

[26] = target: Neu5Gc(a2-8)Neu5Gc(a2-6)Gal(b1-4)GlcNAc
How it was run: as §1

[27] = target: Neu5Gc(b2-6)Gal(b1-4)GlcNAc
How it was run: as §1

B1: Aap brpt (Staphylococcus epidermidis) (protein)
chain: VDGDPITSTEEIPFDKKREFDPNLAPGTEKVVQKGEPGTKTITTPTTKNPLTGEKVGEGEPTEKITKQPVDEIVHYGGEEIKTGHKDEFDPNAPKGSQTTQPGKPGVKNPDTGEVVTPPVDDVTKYGPVDGDPITSTEEIPFDKKREFDPNLAPGTEKVVQKGEPGTKTITTPTTKNPLTGEKVGEGEPTEKITKQPVDEIVHYGGEEIKPGHKDEFDPNAPKGSQEDVPGKPGVKNPDTGEVVTPPVDDVTKYGPVDGDSITSTEEIPFDKKREFDPNLAPGTEKVVQKGEPGTKTITTPTTKNPLTGEKVGEGEPTEKITKQPVDEIVHYGGEQIPQGHKDEFDPNAPVDSKTEVPGKPGVKNPDTGEVVTPPVDDVTKYGPVDGDSITSTEEIPFDKKREFDPNLAPGTEKVVQKGEPGTKTITTPTTKNPLTGEKVGEGKSTEKVTKQPVDEIVEYGPTK
glycan array binding signal (z-score) (Neu5Ac(a2-8)Neu5Ac): -1.61 | glycan array binding signal (z-score) [1]: 0.293 | glycan array binding signal (z-score) [2]: 0.903 | glycan array binding signal (z-score) [3]: -0.002 | glycan array binding signal (z-score) [4]: 0.215 | glycan array binding signal (z-score) [5]: 0.155 | glycan array binding signal (z-score) [6]: 0.258 | glycan array binding signal (z-score) [7]: -0.353 | glycan array binding signal (z-score) [8]: 0.938 | glycan array binding signal (z-score) [9]: -0.192 | glycan array binding signal (z-score) [10]: -0.549 | glycan array binding signal (z-score) [11]: -0.294 | glycan array binding signal (z-score) [12]: -1.18 | glycan array binding signal (z-score) [13]: 0.577 | glycan array binding signal (z-score) (Neu5Ac(b2-6)GalNAc): -1.22 | glycan array binding signal (z-score) [14]: 0.027 | glycan array binding signal (z-score) [15]: 0.236 | glycan array binding signal (z-score) [16]: 0.123 | glycan array binding signal (z-score) [17]: -0.638 | glycan array binding signal (z-score) [18]: 0.751 | glycan array binding signal (z-score) (Neu5Gc(a2-3)Gal(b1-4)Glc): 0.206 | glycan array binding signal (z-score) [19]: -1.29 | glycan array binding signal (z-score) [20]: -1.53 | glycan array binding signal (z-score) [21]: 1.96 | glycan array binding signal (z-score) [22]: -0.165 | glycan array binding signal (z-score) (Neu5Gc(a2-6)GalNAc): -0.735 | glycan array binding signal (z-score) [23]: -0.611 | glycan array binding signal (z-score) [24]: -1.27 | glycan array binding signal (z-score) [25]: -1.35 | glycan array binding signal (z-score) [26]: -0.091 | glycan array binding signal (z-score) [27]: -0.254

From the supplement of paper PMC8728848
